Experimental data: patent US20200354430A1 (OPKO BIOLOGICS, published 2020)
Results are given in words; binding and its absence hold for the method and conditions named. Some binding calls cover weakened binding; strength is not graded here.

By UniProt entry, the sequences of proteins in these tests, tags left out. Residues count along the entry.
UniProt P08709, residues 61-466: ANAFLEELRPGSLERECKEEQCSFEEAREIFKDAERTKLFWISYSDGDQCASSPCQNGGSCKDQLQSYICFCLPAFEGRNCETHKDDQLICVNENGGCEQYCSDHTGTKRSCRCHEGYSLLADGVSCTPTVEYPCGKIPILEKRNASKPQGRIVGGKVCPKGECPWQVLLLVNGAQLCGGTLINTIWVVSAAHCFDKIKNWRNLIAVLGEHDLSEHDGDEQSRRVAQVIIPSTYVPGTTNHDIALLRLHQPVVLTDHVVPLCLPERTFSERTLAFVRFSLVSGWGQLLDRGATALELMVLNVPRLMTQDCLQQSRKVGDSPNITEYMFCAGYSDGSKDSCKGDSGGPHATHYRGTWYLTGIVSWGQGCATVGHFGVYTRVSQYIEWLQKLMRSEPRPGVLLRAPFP
UniProt P00742, residues 41-488: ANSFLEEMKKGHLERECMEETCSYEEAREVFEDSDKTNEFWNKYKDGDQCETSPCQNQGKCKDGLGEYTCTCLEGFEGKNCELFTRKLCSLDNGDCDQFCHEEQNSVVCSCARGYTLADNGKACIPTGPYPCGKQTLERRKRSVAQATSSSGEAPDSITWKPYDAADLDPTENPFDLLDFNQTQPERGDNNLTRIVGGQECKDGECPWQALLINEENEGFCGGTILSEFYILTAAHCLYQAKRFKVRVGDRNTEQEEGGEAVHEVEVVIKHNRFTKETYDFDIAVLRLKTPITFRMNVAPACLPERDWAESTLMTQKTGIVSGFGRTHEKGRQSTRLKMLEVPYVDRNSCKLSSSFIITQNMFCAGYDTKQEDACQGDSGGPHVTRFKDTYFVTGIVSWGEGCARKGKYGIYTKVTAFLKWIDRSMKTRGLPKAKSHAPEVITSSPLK

Tests used:
[1] = molecular target: MOD-5000 (commercial recombinant hFVIIa, NovoSeven) (UniProt P08709); test: rate of FX activation on lipid vesicles without TF as a function of FX concentration
[2] = molecular target: MOD-5000/TF complex (UniProt P08709); test: rate of FX activation as a function of FX concentration

binding [1]: binds | binding [2]: binds
Substance: Factor X (FX) (from UniProt P00742 41-488) (enzyme)
